PMC11109516
Changes are numbered by the printed parent chain. Numbers in names are those of the source. Results are given in words; binding and its absence hold for the method and conditions named. Binding seen in cells or lysates may run through a third protein. Some results given as binding are weak or reduced against the parent protein; the word gives no strength. For part of these data: Tags and fused reporters may be left off the sequences shown.

Key:
[1] = target: T1, GSDMD, endogenous in THP-1-derived macrophages (human (endogenous in THP-1)) (UniProt P57764); test: co-IP; endogenous proteins in THP-1-derived macrophages (mock, LPS, LPS plus ATP, poly(dA:dT) or flagellin; wild type, USP18-KD or USP18-KO); antibodies plus Protein A/G beads at 4 °C overnight
T1 sequence: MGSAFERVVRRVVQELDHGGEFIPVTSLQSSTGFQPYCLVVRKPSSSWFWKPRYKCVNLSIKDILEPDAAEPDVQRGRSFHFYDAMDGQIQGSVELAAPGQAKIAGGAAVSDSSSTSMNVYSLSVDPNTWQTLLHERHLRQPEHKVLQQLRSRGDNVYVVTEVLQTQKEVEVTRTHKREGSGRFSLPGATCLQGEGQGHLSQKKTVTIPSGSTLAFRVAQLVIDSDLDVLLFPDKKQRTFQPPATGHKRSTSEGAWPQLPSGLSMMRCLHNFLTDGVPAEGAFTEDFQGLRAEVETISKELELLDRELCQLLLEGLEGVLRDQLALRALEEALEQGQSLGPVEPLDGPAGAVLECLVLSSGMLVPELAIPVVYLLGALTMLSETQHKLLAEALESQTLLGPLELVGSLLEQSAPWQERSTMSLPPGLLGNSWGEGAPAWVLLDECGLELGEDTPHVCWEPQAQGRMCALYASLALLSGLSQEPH

[2] = target: T2, Flag-GSDMD, wild type (human) (UniProt P57764); test: co-IP; HEK293T cells transfected with tagged proteins; lysates with anti-Flag or anti-Myc beads at 4 °C overnight, washed with low-salt lysis buffer (50 mM HEPES pH 8.0, 150 mM NaCl, 1% Triton X-100); Fig. 3M to O after Baf A1 (0.2 μM, 6 h)
T2 sequence: T1 sequence

[3] = target: T3, USP18, as used in the co-precipitations of the supplementary figures (S1D, S5A, S5B, S6D) (UniProt Q9UMW8); test: co-IP; co-precipitations of the supplementary figures (S1D, S2Q, S5A to C, S6D and E); legends not shown; HEK293T cells where the text tells; S2Q with control or USP18 knock-down, S5C with overexpressed USP18 or USP18 C64A
T3 sequence: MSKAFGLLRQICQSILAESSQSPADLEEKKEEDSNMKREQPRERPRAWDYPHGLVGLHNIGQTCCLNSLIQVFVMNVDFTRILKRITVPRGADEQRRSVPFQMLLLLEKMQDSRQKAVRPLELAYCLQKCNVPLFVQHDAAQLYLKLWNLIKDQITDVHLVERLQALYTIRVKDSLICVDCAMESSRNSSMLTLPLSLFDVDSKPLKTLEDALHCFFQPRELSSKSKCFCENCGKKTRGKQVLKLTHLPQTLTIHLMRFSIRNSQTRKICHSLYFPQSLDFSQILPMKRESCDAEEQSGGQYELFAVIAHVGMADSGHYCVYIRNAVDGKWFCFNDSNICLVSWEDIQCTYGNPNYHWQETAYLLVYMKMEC

Flag-GSDMD K168R (human) = target: T4, Flag-GSDMD K168R (human) (UniProt P57764); test: co-IP; BECN1-KO HEK293T cells transfected with Myc-CASP1 or Myc-CASP4 and Flag-GSDMD WT or K168R for 24 h; level of co-precipitated Myc-CASP1/4 quantified
T4 sequence: T1 sequence with K168R

[4] = target: T2, Flag-GSDMD, wild type (human); test: as above
[5] = target: T5, GSDMD, wild type, as used in the co-precipitations of the supplementary figures (S1D, S2Q, S5C, S6D, S6E) (human) (UniProt P57764); test: co-IP; co-precipitations of the supplementary figures (S1D, S2Q, S5A to C, S6D and E); legends not shown; HEK293T cells where the text tells; S2Q with control or USP18 knock-down, S5C with overexpressed USP18 or USP18 C64A
T5 sequence: T1 sequence

B1: NDP52, endogenous in THP-1-derived macrophages (protein, UniProt Q13137 1-446)
chain: MEETIKDPPTSAVLLDHCHFSQVIFNSVEKFYIPGGDVTCHYTFTQHFIPRRKDWIGIFRVGWKTTREYYTFMWVTLPIDLNNKSAKQQEVQFKAYYLPKDDEYYQFCYVDEDGVVRGASIPFQFRPENEEDILVVTTQGEVEEIEQHNKELCKENQELKDSCISLQKQNSDMQAELQKKQEELETLQSINKKLELKVKEQKDYWETELLQLKEQNQKMSSENEKMGIRVDQLQAQLSTQEKEMEKLVQGDQDKTEQLEQLKKENDHLFLSLTEQRKDQKKLEQTVEQMKQNETTAMKKQQELMDENFDLSKRLSENEIICNALQRQKERLEGENDLLKRENSRLLSYMGLDFNSLPYQVPTSDEGGARQNPGLAYGNPYSGIQESSSPSPLSIKKCPICKADDICDHTLEQQQMQPLCFNCPICDKIFPATEKQIFEDHVFCHSL
B1 was tested. Which binding [1] did it give?
Its binding is “binds”.

B2: HA-NDP52 (protein, UniProt Q13137 1-446)
chain: B1 chain
How did the binding [2] turn out when B2 was run?
Its binding is “binds”.

B3: GSDMD, wild type, as used in the co-precipitations of the supplementary figures (S1D, S2Q, S5C, S6D, S6E) (protein, UniProt P57764 1-484)
chain: T1 sequence
With B3 as the binder, how does the binding [3] read?
The binding was “binds”.

B4: Myc-caspase-4 (enzyme, UniProt P49662 1-377)
chain: MAEGNHRKKPLKVLESLGKDFLTGVLDNLVEQNVLNWKEEEKKKYYDAKTEDKVRVMADSMQEKQRMAGQMLLQTFFNIDQISPNKKAHPNMEAGPPESGESTDALKLCPHEEFLRLCKERAEEIYPIKERNNRTRLALIICNTEFDHLPPRNGADFDITGMKELLEGLDYSVDVEENLTARDMESALRAFATRPEHKSSDSTFLVLMSHGILEGICGTVHDEKKPDVLLYDTIFQIFNNRNCLSLKDKPKVIIVQACRGANRGELWVRDSPASLEVASSQSSENLEEDAVYKTHVEKDFIAFCSSTPHNVSWRDSTMGSIFITQLITCFQKYSWCCHLEEVFRKVQQSFETPRAKAQMPTIERLSMTRYFYLFPGN
With B4 as the binder, how does the binding (Flag-GSDMD K168R (human)) read?
Its binding is “binds”.

What about the binding [4] of the same binder?
Its binding is “binds”.

B5: CALCOCO2/NDP52, as used in Fig. S2Q (protein, UniProt Q13137 1-446)
chain: B1 chain
For B5, which binding [5] is on record?
Its binding is “binds”.
